PubChem BioAssay AID493014 (National Center for Advancing Translational Sciences (NCATS), 2011)
The list shows a part of the results. These are further read-outs of the screen, such as a control signal, another cell line or another target. No call is given for them. Most of these compounds were active or inconclusive in the main read-out, so they are no random draw. Words in brackets tell the shape of the fitted curve; partial curves, single points and poor fits give uncertain potencies.

Assay: qHTS Assay to Find Inhibitors of Chronic Active B-Cell Receptor Signaling
Conditions: ABC-DLBCL IkBa-CBG/CBR reporter, luminescence ratio (green luciferase fused to IkBa over red control in TMD8 lymphoma cells), 4 h
Procedure, shortened: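 Cell line TMD8 (human ABC DLBCL), stably expressing tet-inducible CBG68-IkBa fusion and CBR; IMDM/0.5% FBS; cpd up to 46 uM; dox induction, 4 h, 37C/5% CO2; dual luminescence; green/red ratio; MG132 control.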

[1] = measured here: CBR red luminescence, cell number
[2] = measured here: IkBa-CBG green luminescence

SMILES | AC50 [1] | AC50 [2]
O=C1Nc2ccccc2Oc2cc(Oc3ccc(Cl)cc3)ccc21 | 0.501 µM [rising, full curve, poor fit] | 
O=C(CN1N=C(c2ccc(Cl)cc2)CCC1=O)NCc1ccc(F)cc1 | 0.224 µM [falling, full curve] | 
Cc1ccsc1C(=O)NNC(=O)c1ccncc1 | 16.4 µM [falling, single point] | 
O=C(c1c[nH]c2ccccc12)C(F)(F)F | 22.4 µM [rising, single point] | 
CCN(Cc1ccccc1)S(=O)(=O)c1ccc(C(=O)Nc2nnc(C)o2)cc1 | 11.2 µM [rising, partial curve] | 
O=C(CSc1nnnn1-c1ccc(O)cc1)Nc1cccc(S(=O)(=O)N2CCCC2)c1 | 25.9 µM [falling, single point] | 
CC(=O)c1ccc(COC(=O)c2cc3ccccc3oc2=O)cc1 | 3.55 µM [rising, partial curve, poor fit] | 
CC1=C(C)/C(=N\OS(=O)(=O)c2ccc(C)cc2)C=CC1=O | 29.1 µM [falling, single point] | 
CCOc1ccc(C(=O)CSCCC(=O)O)cc1 | 3.55 µM [falling, partial curve, poor fit] | 
COc1ccccc1NC(=O)Cc1csc(NC(=S)Nc2ccc(C)cc2)n1 | 11.2 µM [falling, partial curve, poor fit] | 
CC1(C)C(C=C(Cl)Cl)C1C(=O)N(Cc1ccc(Cl)cc1)C1CCS(=O)(=O)C1 (stereo unspecified) | 29.1 µM [falling, single point] | 
O=C(NC(=S)Nc1ncccn1)c1ccccc1Br | 12.6 µM [falling, partial curve] | 
CCc1ccc(NC(=O)c2ccc(F)c(S(=O)(=O)NCC3COc4ccccc4O3)c2)cc1 (stereo unspecified) | 13 µM [falling, partial curve, poor fit] | 
CN1C(C(=O)Nc2ccc(F)cc2F)=CC(c2cccs2)=NS1(=O)=O | 11.2 µM [falling, partial curve, poor fit] | 
Cc1cccc(NC(=S)N/N=C2/CCCCc3ccccc32)c1 | 11.6 µM [rising, partial curve] | 
COc1cc(/C=N/NC(=O)CN2CCCCC2)ccc1OCc1ccc(Br)cc1 | 8.2 µM [rising, partial curve] | 
O=C(NC1CCCCC1)c1cc(-c2ccccc2Cl)on1 | 3.98 µM [falling, full curve] | 
CC1O[C@H](OC2C(COC3OC(CO)C(O)[C@H](O)C3O)OC(OC3CC[C@]4(C)C(CC[C@@]5(C)[C@@H]4C=C[C@]46OC[C@@]7(CCC(C)(C)C[C@H]74)C(O)C[C@@]56C)C3(C)C)C(O)C2O)C(O)C(O)C1O (stereo partly specified) | 0.146 µM [rising, full curve, poor fit] | 
Cc1cccc(NC(=O)C2CCCN2C(=O)Oc2ccccc2)c1 (stereo unspecified) | 29.1 µM [falling, single point] | 
COC(=O)[C@H](Cc1ccccc1)NC(=O)NCc1ccccc1OC | 20.6 µM [rising, single point] | 

Copied from the list:
`O=C(NC(=S)Nc1ncccn1)c1ccccc1Br` – AC50 [1]: 12.6 µM [falling, partial curve]
`Cc1cccc(NC(=O)C2CCCN2C(=O)Oc2ccccc2)c1` (stereo unspecified) – AC50 [1]: 29.1 µM [falling, single point]
`CN1C(C(=O)Nc2ccc(F)cc2F)=CC(c2cccs2)=NS1(=O)=O` – AC50 [1]: 11.2 µM [falling, partial curve, poor fit]

Following part:

SMILES | AC50 [1] | AC50 [2]
CCOCCN1CCN(c2c(CC)c(C)nc3cc(-c4cc(OC)cc(OC)c4)nn23)CC1 | 14.6 µM [falling, partial curve] | 2.31 µM [falling, partial curve, poor fit]
CCC(C(=O)NCCC(C)C)n1ccc2cc(S(=O)(=O)N3CCCCC3)ccc21 (stereo unspecified) | 35.5 µM [falling, single point] | 
O=C1CSC(=S)N1c1cccc(O)c1 | 20 µM [falling, single point] | 
COc1ccccc1NS(=O)(=O)c1cc(C(=O)NCC(c2ccc(F)cc2)N2CCOCC2)ccc1C (stereo unspecified) | 4.61 µM [falling, full curve] | 
O=C(c1cc(-c2ccc(F)cc2)on1)N1CCCc2ccccc21 | 10 µM [falling, partial curve, poor fit] | 
CCOC(=O)C1(CC2CCCCO2)CCN(Cc2cc3ccccc3[nH]2)CC1 (stereo unspecified) | 1.26 µM [falling, partial curve, poor fit] | 
COC(=O)c1ccccc1NC(=O)CN(Cc1ccccc1)S(C)(=O)=O | 29.1 µM [rising, single point] | 
C/C(=N/NC(=O)c1ccc(C)s1)c1cccc(NC(=O)COc2ccc(Cl)cc2Cl)c1 | 0.651 µM [rising, full curve, poor fit] | 
CCCNC(=O)c1ccc2c(=O)c(O)c(C)[nH]c2c1 | 35.5 µM [rising, single point] | 
COC(=O)c1sc2nc[nH]c(=O)c2c1C | 1.3 µM [falling, partial curve, poor fit] | 
CC(C)(C)OC(=O)NCCCCCNC(=O)c1[nH]cnc1C(=O)Nc1nccs1 |  | 1.46 µM [rising, full curve, poor fit]
Cn1ccs/c1=N\S(=O)(=O)c1ccc(F)cc1 | 0.0731 µM [falling, full curve, poor fit] | 
Cc1ccccc1CSCCNC(=S)Nc1ccccc1 | 12.6 µM [rising, single point] | 
Cc1cccc(Oc2c([N+](=O)[O-])c(=O)n(C)c3ccccc23)c1 | 35.5 µM [rising, single point] | 35.5 µM [falling, single point]
Cn1c(SCC(=O)NCC2CCCO2)ncc(C(=O)Nc2ccccc2)c1=O (stereo unspecified) | 2.59 µM [falling, full curve, poor fit] | 
O=C(CC(Sc1ccc(Br)cc1)C(=O)O)c1ccc(Br)cc1 (stereo unspecified) | 12.6 µM [falling, partial curve] | 
O=C(Nc1ccncc1)c1ccc2ccccc2c1 | 0.794 µM [falling, full curve, poor fit] | 
CN=C(Nc1cccc(Cl)c1)SC1CC(=O)N(c2ccc(OC)cc2)C1=O (stereo unspecified) | 0.794 µM [rising, partial curve, poor fit] | 
Cn1c(SCC(=O)NNC(=S)Nc2ccccc2)nnc1-c1ccccc1 | 1.41 µM [rising, partial curve, poor fit] | 
N#C/C(=C/c1ccc(N2CCOCC2)o1)C(=O)Nc1ccccc1 | 3.98 µM [falling, partial curve] | 

3 compounds out of the list, sorted by formula weight, low to high.
SMILES | AC50 [1] | AC50 [2]
Cn1ccs/c1=N\S(=O)(=O)c1ccc(F)cc1 | 0.0731 µM [falling, full curve, poor fit] | 
CC(C)(C)OC(=O)NCCCCCNC(=O)c1[nH]cnc1C(=O)Nc1nccs1 |  | 1.46 µM [rising, full curve, poor fit]
O=C(CC(Sc1ccc(Br)cc1)C(=O)O)c1ccc(Br)cc1 (stereo unspecified) | 12.6 µM [falling, partial curve] | 

More entries.

SMILES | AC50 [1] | AC50 [2]
CC1Cc2ccccc2N1C(=O)CN1C(=O)C(=O)N(Cc2ccccc2)C1=O (stereo unspecified) | 0.164 µM [falling, full curve, poor fit] | 
C[C@@H]1COC(=O)[C@@H](CC(=O)OC(C)(C)C)C/C=C\C[C@@H](CC(=O)N[C@@H](CO)Cc2ccccc2)C(=O)N1 | 20.6 µM [rising, partial curve, poor fit] | 
O=C(CP(=O)(c1ccccc1)c1ccccc1)Nc1cccc(CP(=O)(c2ccccc2)c2ccccc2)c1 | 25.1 µM [falling, single point] | 
Cc1cccc(NC(=O)CSc2nc3c([nH]c4ccccc43)c(=O)n2C)c1 | 0.251 µM [falling, full curve, poor fit] | 
Cc1ccc(CN(C(=O)COc2ccc(C)c(C)c2)C2CCS(=O)(=O)C2)o1 (stereo unspecified) | 17.8 µM [falling, single point] | 
CC(=O)Nc1sc(N/N=C\c2ccco2)nc1-c1cccs1 | 18.4 µM [falling, single point] | 
O=C(OCc1cncs1)c1ccccc1Cl | 35.5 µM [rising, partial curve, poor fit] | 
CC1CCCC(C)N1C(=O)CSc1ccc(-c2ccc3c(c2)OCCO3)nn1 (stereo unspecified) | 14.1 µM [falling, partial curve, poor fit] | 
CCN(CC)CCNC(=O)c1ccc2c(c1NCCO)C(=O)c1ccccc1C2=O |  | 7.08 µM [rising, partial curve, poor fit]
O=c1[nH]c(-c2ccccn2)nc2sc(-c3ccccc3)cc12 | 3.55 µM [falling, full curve, poor fit] | 2.82 µM [falling, full curve]
COc1ccc(NC(=O)c2cn(-c3ccccc3)nc2SC)cc1 | 5.62 µM [falling, full curve, poor fit] | 
O=C(NCCn1cc(SCc2ccc(F)cc2)c2ccccc21)c1ccccc1F | 29.1 µM [falling, single point] | 
C/C(=N\NC(=S)NC1CCCCC1)c1ccc(O)cc1 | 35.5 µM [falling, single point] | 25.1 µM [falling, single point]
O=S(=O)(CCN1C=CC(C(F)(F)F)=NCC1)c1ccc(F)cc1 | 35.5 µM [falling, single point] | 
CCn1nc(NC(=O)c2ccco2)c2cc3ccccc3nc21 | 5.62 µM [falling, full curve] | 
CC(C)CNc1c(N)n(CC(C)C)c(=O)[nH]c1=O | 0.1 µM [rising, full curve, poor fit] | 
CN(CC(=O)Nc1nc2ccc(F)cc2s1)S(=O)(=O)c1ccc(Cl)cc1 | 29.1 µM [falling, single point] | 25.9 µM [rising, partial curve, poor fit]
CC1(c2ccc(Cl)cc2Cl)NC(=O)N(CC(=O)Nc2ccc3[nH]c(=O)[nH]c3c2)C1=O (stereo unspecified) | 20.6 µM [rising, partial curve, poor fit] | 
CC1CCN(CC2C(=O)O[C@@H]3C[C@@]4(C)CCC[C@H](C)C4=C[C@H]23)CC(C)(C)C1 (stereo partly specified) | 10 µM [falling, partial curve] | 
S=c1nc2ccccc2c2nc(-c3ccccc3)[nH]n12 | 11.2 µM [falling, partial curve, poor fit] | 1 µM [falling, full curve]
